Test results as given in US20130303539A1, “COMPOUNDS WITH TRPV4 ACTIVITY, COMPOSITIONS AND ASSOCIATED METHODS THEREOF” (priority 2012, published 2013).
Some of these results come from one statement about several compounds together.

Test system: MB model of glaucoma
Assay: IOP time course after a single eye drop in the MB model of glaucoma
Format: in vivo, mouse
Description: Specifically, microbeads (MBs) were injected into the anterior chamber of a mouse eye as described in Example 2 with PBS-injected eyes used as controls. Compound 1 (10 mg/kg body weight) (or PBS vehicle) was injected intraperitoneally (IP). […] IOP was measured in mice between 10:00 AM and 1:00 PM with the TonoLab rebound tonometer (Colonial Medical Supply, Franconia, NH/Tyolat, Helsinki, Finland). Mice were sedated with IP injection of Avertin with final amount calculated by weight (e.g., 0.5 ml for 21-24 g animals). Animals were placed on a jack stand platform and the tonolab was clamped on a ring stand and centered onto the mid-cornea. During measurements animal were neither restrained nor touched. Each eye was measured twenty consecutive times, the highest and lowest values were discarded and the values were averaged.
FIG. 9 illustrates the short-term effects of a single dose of Compound 1 (eye drop) in the MB model of glaucoma. IOP was measured as described in Example 3 at the indicated time points after receiving a drop of Compound 1. Compound 1 reduced IOP beginning at 1 hour after dosing and continued through 6 hours after dosing.
FIG. 10 illustrates a time course of Compounds 1, 2, 5 and Compound 2-HCl as well as a positive control compound, timolol, with regard to inhibition of IOP. The experiment was conducted as described in Example 9. Each of the TRPV4 antagonists reduced IOP with a similar time course. Specifically, Compounds 1, 2, 5 and Compound 2-HCl reduced IOP for at least 6 hours after dosing.
FIG. 11 illustrates a time course of Compound 2-HCl activity. The experiment was conducted as described in Example 9. […] 2
FIG. 12 illustrates a comparison of the time course of Compound 2-HCl and Compound 5. The experiment was conducted as described in Example 9.

Row | Compound | duration of IOP reduction after dosing | onset of IOP reduction after dosing [h]
1 | Cc1c(C(=O)Nc2cccc(C(=O)OC(C)C)c2)cc(-c2ccccc2)n1CCCN1CCOCC1.Cl [Compound 2-HCl, iso-propyl 3-(2-methyl-1-(3-morpholinopropyl)-5-phenyl-1H-pyrrole-3-carboxamido)benzoate hydrochloride] | at least 6 hours | ≤ 1
2 | Cc1c(C(=O)Nc2cccc(C(=O)OC(C)C)c2)cc(-c2ccccc2)n1CCCN1CCOCC1 [Compound 2, iso-propyl 3-(2-methyl-1-(3-morpholinopropyl)-5-phenyl-1H-pyrrole-3-carboxamido)benzoate] | at least 6 hours | 
